Some entries share one result that the patent states for a list of compounds.
Test system: Zika virus strain PRVABC59
Assay: Inhibition assay: PRVABC59 ZIKV growth in Vero cells (plaque assay, RT-qPCR)
Type: cell-based
Conditions: 1 μM, PRVABC59, 96 hours post-infection
Description: Vero cells were seeded in a 96-well plate with the density of 6000 cells per well. In the initial screening study, the compound (1 μM)-virus (0.1 PFU/cell) mixture in virus growth medium (VGM) [DMEM containing 2% FBS, PS, 20 mM hydroxyethyl piperazine ethane sulfonic acid (HEPES), 1 mM sodium pyruvate, and non-essential amino acids] was added to the cells and incubated for 72 h. In a separate experiment conducted using 12-well plates, the cells were first infected with the virus at 0.1 PFU/cell and following adsorption, the cells were washed twice in PBS and incubated in VGM containing 1 μM concentrations of the drugs. The cell culture media were collected at 72-96 h post-infection and assayed for infectious virus by plaque assay and viral genome copies by quantitative RT-PCR (RT-qPCR). […]
ZIKV viral RNA was detected using RT-qPCR on a C100 Thermal Cycler and the CFX96 Real-Time system (Bio-Rad). […] ZIKV primers and probe (ZIKF: CCGCTGCCCAACACAAG (SEQ ID NO:1); ZIK-R:[…] (SEQ ID NO:2); PCR Probe: ZIK-P: […] (SEQ ID NO:3)) were used for quantitative RT-PCR (RT-qPCR) with the following parameters: 50° C. […] RNA standard concentrations were determined based on the back calculation with OD values and molecular weights and were generated through serial dilution with R^2>0.95.

COc1c(C)c2c(c(O)c1C/C=C(\C)CCC(=O)O)C(=O)OC2 [MPA, Mycophenolic acid]
ZIKV yield inhibition, side-by-side comparison: 10- to 20 fold

— patent US11135219B2, “Methods of treating or preventing Zika virus infection” (priority 2017, dated 2021)
